The values below come from patent US4605655A, “Antipsychotic 1-fluorophenylbutyl-4-(2-pyrimidinyl)piperazine derivatives” (Bristol-Myers Company, priority 1984, dated 1986).

The target in this assay is Dopamine receptor (striatal tissue). Put plainly: Dopamine (DA) receptor binding vs. [^3 H]spiperone. To be noted: read-out: DA Binding (vs. [^3 H]spip.) IC50. An excerpt: As further indication of the psychotropic activity and specificity of the instant compounds, state of the art in vitro central nervous system receptor binding methodology can be employed. […] Inhibition of radiolabeled ligand binding to such specific high affinity sites is considered a measure of the compound's ability to affect corresponding central nervous system function or cause side effects in vivo. This principal is employed in the following assays which are given by way of example.
Dopamine Burt, et al., Molec. Pharmacol., 12, 800

Regarding `CSc1ccc2c(c1)N(CCC1CCCCN1C)c1ccccc1S2` (stereo not shown) [Thioridazine, reference compound], the IC50 amounted to 67 nM.

In general, IC50 refers to the concentration needed to halve the response being measured.
